Results published in publication PMC12132378 (bioRxiv, 2025).

Target: Ub-Lys-TAMRA (UniProt P0CG48 1-76, Ub is isopeptide-linked to a TAMRA-labeled Lys-Gly dipeptide (modification at the Ub C-terminus))
Assay: fluorescence polarisation

B1: RNF114 MUBD construct (residues 137–228) (domain or fragment)
chain: NRYTFPCPYCPEKNFDQEGLVEHCKLFHSTDTKSVVCPICASMPWGDPNYRSANFREHIQRRHRFSYDTFVDYDVDEEDMMNQVLQRSIIDQ
- binding result: binds
